{"source": "PubChem BioAssay AID2685", "about": "(National Center for Advancing Translational Sciences (NCATS), 2010)", "note": "Among all 320,000 compounds or so, about 2,100 (0.66%) were called active. Inconclusive means that the source gave no clear call. Such entries were picked first, then a sample of the others. Calls follow the shape of the dose curve; as a rule, active = well fitted inhibition curve with a large enough effect in the signal ratio, with a control signal flat (not every such curve was filed as active); inconclusive = small, poorly fitted or top-dose-only effect, or effect the other way, or a change in a side signal; inactive = flat fitted curve, though single readings scatter; the % refers to the signal ratio. Potencies beside an inconclusive call are fits to weak or partial responses and may not hold up. % is scaled to controls: 0 for no effect and ±100 for the full control effect; potency is read from the fitted curve at half-maximal effect."}
{"test": "qHTS Assay for Lipid Storage Modulators in Drosophila S3 Cells", "conditions": "BODIPY lipid droplet fluorescence, 18-24 h, cells fed with added oleic acid; lipid storage change, negative = inhibition: at 46.1 µM (top of the series) unless noted", "in_short": "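Drosophila S3 cells got compounds at several concentrations plus oleic acid (400 uM solution). Laser-scanning cytometry with 488 nm excitation read lipid droplets at 500-530 nm and cells at 575-640 nm. Percent activity was relative to 20 uM Triacsin C.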"}
{"smiles": "COCCNC(=O)CSCc1c(F)cccc1Cl", "Potency": "inconclusive: 8.2 µM [activator, partial curve, poor fit]"}
{"smiles": "CC(=C\\C(=O)O)/C(=C/c1ccc(C)o1)C(=O)O", "lipid storage change, negative = inhibition": "inactive"}
{"smiles": "CS(=O)(=O)c1ccc(C(=O)N2CCN(Cc3ccccc3)CC2)cc1", "lipid storage change, negative = inhibition": "inconclusive: 1.87%"}
{"smiles": "CCCCC1C(=O)N(c2ccccc2)N(c2ccccc2)C1=O", "lipid storage change, negative = inhibition": "inconclusive: 27%"}
{"smiles": "Cc1cccc(C(=O)OCC(=O)NCC2COc3ccccc3O2)c1", "note": "(configuration not stated)", "lipid storage change, negative = inhibition": "inconclusive: 7.04%"}
{"smiles": "CCCCn1c(-c2ccc([N+](=O)[O-])cc2)n[nH]c1=S", "lipid storage change, negative = inhibition": "inconclusive: 8.55%"}
{"smiles": "Cc1ccc(NC(=O)C(c2ccccc2)N2CCN(C(=O)c3ccco3)CC2)cc1", "note": "(configuration not stated)", "lipid storage change, negative = inhibition": "inconclusive: -48.8%"}
{"smiles": "Cc1ccc(S(=O)(=O)N2CCC(C(=O)N[C@@H](C)C(=O)Nc3ccc4c(c3)OCO4)CC2)cc1", "lipid storage change, negative = inhibition": "inconclusive: 33.3%"}
{"smiles": "NS(=O)(=O)c1ccc2c(c1)C(=NO)c1cc(S(N)(=O)=O)ccc1-2", "lipid storage change, negative = inhibition": "inconclusive: 50.3%"}
{"smiles": "Cc1ccc(-n2nc3c(N4CCC(C(=O)NCCc5ccccc5C)CC4)nnc(C)c3c2C)cc1", "Potency": "inconclusive: 23.1 µM [activator, partial curve]"}
{"smiles": "COc1ccc(CCOC(=O)c2cccc(NC(C)=O)c2)cc1", "lipid storage change, negative = inhibition": "inconclusive: -11.7%"}
{"smiles": "O=C(COC(=O)Cn1cnc2ccccc21)NCCCc1ccccc1", "lipid storage change, negative = inhibition": "inconclusive: 139%"}
{"smiles": "O=C(NCC(c1ccco1)N1CCCCC1)c1cccc(S(=O)(=O)Nc2ccc(F)cc2)c1", "note": "(configuration not stated)", "lipid storage change, negative = inhibition": "inconclusive"}
{"smiles": "C=CCn1c(COc2ccc3c(c2)CCCC3)nnc1SCC(=O)Nc1cccc(SC)c1", "Potency": "inconclusive: 29.1 µM [falling, single point]"}
{"smiles": "Cn1c(CO)cnc1SCC(=O)c1ccc(Cl)cc1", "lipid storage change, negative = inhibition": "inconclusive: -41.2%"}
{"smiles": "CC(=O)CCC(=O)NC1CCCc2c1cnn2-c1ccc(C(C)(C)C)cc1", "note": "(configuration not stated)", "Potency": "active: 10.3 µM"}
{"smiles": "O=C(c1ccco1)n1nc(-c2ccc(Cl)cc2)nc1NCc1ccco1", "Potency": "inconclusive: 0.651 µM [activator, partial curve, poor fit]"}
{"smiles": "Cc1scc(C(=O)Nn2cnnc2)c1-c1ccccc1", "lipid storage change, negative = inhibition": "inconclusive: 7.51%"}
{"smiles": "COc1ccc(CC(O)COS(N)(=O)=O)cc1", "note": "(configuration not stated)", "Potency": "inconclusive: 29.1 µM [activator, single point]"}
{"smiles": "Cc1cc(OCC(=O)Nc2ccc(S(=O)(=O)N3CCN(C)CC3)cc2)ccc1Br", "lipid storage change, negative = inhibition": "inconclusive: -46.5%"}
{"smiles": "COc1ccccc1C(=O)N1CCNC(=O)C1CC(=O)Nc1ccc(Cl)cc1", "note": "(configuration not stated)", "lipid storage change, negative = inhibition": "inconclusive: 21.1%"}
{"smiles": "CCOC(=O)c1ccc(NC(=O)CSc2nnc(COc3ccccc3)n2C)cc1", "lipid storage change, negative = inhibition": "inconclusive: -20.5%"}
{"smiles": "CCOc1ccccc1NC(=O)C(=O)CC(=O)c1cccc(OC)c1", "lipid storage change, negative = inhibition": "inconclusive: -16.7%"}
{"smiles": "CCOc1ccc2nc(SCC(=O)N3c4ccccc4Sc4ccccc43)c(C#N)cc2c1", "lipid storage change, negative = inhibition": "inconclusive: 8.93%"}
{"smiles": "COCc1cc(C)nc(SCc2ccc([N+](=O)[O-])cc2)c1C#N", "lipid storage change, negative = inhibition": "inconclusive: -43.3%"}
{"smiles": "CNC(=S)N(CCc1c(C)[nH]c2ccc(C)cc12)Cc1ccco1", "Potency": "inconclusive: 1.84 µM [activator, full curve]"}
{"smiles": "Cc1cc(C)c(C(=O)NC2CCCc3c2cnn3-c2cccc(C)c2C)o1", "note": "(configuration not stated)", "Potency": "inconclusive: 0.0046 µM [cytotoxic, full curve]"}
{"smiles": "Cc1ccc(-n2c(-c3cccc(C)c3)n[nH]c2=S)cc1", "lipid storage change, negative = inhibition": "inconclusive: 162%"}
{"smiles": "COc1ccc(OC)c(S(=O)(=O)N2CCN(Cc3ccccc3)CC2)c1", "Potency": "inconclusive: 0.517 µM [activator, partial curve, poor fit]"}
{"smiles": "Cc1c(NC(=O)CS(=O)(=O)c2ccccc2)c(=O)n(-c2ccccc2)n1C", "lipid storage change, negative = inhibition": "inconclusive: 156%"}
{"smiles": "O=C(Nc1ccc(O)cc1)/C(=C\\C=C\\c1ccccc1)NC(=O)c1ccccc1", "lipid storage change, negative = inhibition": "inconclusive: -16.5%"}
{"smiles": "O=S(=O)(c1cnc(Cl)c(Br)c1)N1CCCCCC1", "Potency": "inconclusive: 29.1 µM [falling, partial curve, poor fit]"}
{"smiles": "COCCCn1c(C2CCCCC2)nc2oc3cc(OC)ccc3c(=O)c2c1=O", "lipid storage change, negative = inhibition": "inconclusive: 6.87%"}
{"smiles": "CCNC(=O)C1CC(=O)N(c2ccc(OCC)cc2)C1", "note": "(configuration not stated)", "Potency": "inconclusive: 0.146 µM [activator, full curve, poor fit]"}
{"smiles": "Cc1cc(C)n2nc(SCc3ccccc3F)nc2n1", "lipid storage change, negative = inhibition": "inconclusive: 16.5%"}
{"smiles": "CCCCNS(=O)(=O)c1cc(-c2nn(C)c(=O)c3ccccc23)ccc1C", "lipid storage change, negative = inhibition": "inconclusive: 10.2%"}
{"smiles": "CCc1ccc(-c2cc(C)no2)cc1S(=O)(=O)Nc1ccc(C)cn1", "Potency": "inconclusive: 6.51 µM [activator, partial curve, poor fit]"}
{"smiles": "CC(=O)Nc1cccn(Cc2c(Cl)cccc2Cl)c1=O", "lipid storage change, negative = inhibition": "inconclusive: 28.6%"}
{"smiles": "Cc1cc2c(cc(C(=O)OCC(=O)NCc3cccs3)n2C(C)C)o1", "lipid storage change, negative = inhibition": "inconclusive: 33.7%"}
{"smiles": "CSc1ccc(CCNC(=O)CCc2nnc3ccc(N4CCCCC4)nn23)cc1", "lipid storage change, negative = inhibition": "inconclusive: -71.5%"}
{"smiles": "O=C1CC2(CCN(C(=O)c3ccc(F)c(F)c3)CC2)Oc2ccccc21", "lipid storage change, negative = inhibition": "inconclusive: 39.4%"}
{"smiles": "CCn1c(SCC(=O)NC2CCCCC2)nnc1-c1ccco1", "lipid storage change, negative = inhibition": "inconclusive: 2.81%"}
{"smiles": "CC(C)N(C(=O)Cn1c(=O)oc2ccccc21)c1ccccc1", "lipid storage change, negative = inhibition": "inactive"}
{"smiles": "COC(=O)[C@H](CC(C)C)NC(=O)c1cc2c(cn1)[nH]c1ccccc12", "lipid storage change, negative = inhibition": "inconclusive: 35.5%"}
{"smiles": "CC(=O)Nc1nc2ccccc2n1CCOc1ccccc1", "lipid storage change, negative = inhibition": "inconclusive: -44.3%"}
{"smiles": "CC(=O)Nc1ccc(Nc2nc(C)nc3c2nnn3Cc2ccccc2Cl)cc1", "Potency": "inconclusive: 2.31 µM [falling, full curve]"}
{"smiles": "Cc1ccc(Nc2nc(C)cc(C)c2C(N)=O)c(C)c1", "Potency": "inconclusive: 29.1 µM [activator, single point]"}
{"smiles": "CC(OC(=O)CN1C(=O)c2ccccc2C1=O)C(=O)c1ccccc1", "note": "(configuration not stated)", "Potency": "inconclusive: 0.092 µM [falling, full curve, poor fit]"}
{"smiles": "Cc1nc(C)c(-c2csc(NCCc3ccccc3)n2)s1", "Potency": "inconclusive: 23.1 µM [falling, single point]"}
{"smiles": "COc1ccc(/C=C/C(=O)NNc2cc(=O)n(C)c(=O)n2C)cc1OC", "lipid storage change, negative = inhibition": "inconclusive: 1.34%"}
{"smiles": "C#CCN1C(=O)C(O)(CC(=O)c2ccc(OC)c(OC)c2)c2ccccc21", "note": "(configuration not stated)", "lipid storage change, negative = inhibition": "inconclusive: 0.199%"}
{"smiles": "CCC(C(=O)Nc1ccccc1F)n1nc(C)c2c(C)n(-c3ccccc3)nc2c1=O", "note": "(configuration not stated)", "Potency": "inconclusive: 6.51 µM [activator, single point]"}
{"smiles": "COc1ccc(C2(c3ccc(OC)cc3)NC(=O)N(CC(=O)Nc3ccccc3)C2=O)cc1", "lipid storage change, negative = inhibition": "inactive"}
{"smiles": "CCOC(=O)Cc1cc(=O)[nH]c(=O)[nH]1", "lipid storage change, negative = inhibition": "inconclusive: -2.62%"}
{"smiles": "COC(=O)C1=C(C)NC(C)=C(C(=O)OC)C1C(=O)OCC(=O)N1c2ccccc2CC1C", "note": "(configuration not stated)", "Potency": "inconclusive: 0.731 µM [activator, single point]"}
{"smiles": "O=C(NCCCc1ccncc1)C1CCC(=O)N(Cc2cccc(F)c2)C1", "note": "(configuration not stated)", "lipid storage change, negative = inhibition": "inconclusive: 25.5%"}
{"smiles": "CCCNC(=O)COC(=O)c1ccc(S(=O)(=O)N2CCCCCC2)cc1", "lipid storage change, negative = inhibition": "inconclusive: 30.2%"}
{"smiles": "CS(=O)(=O)c1ccc(NC(=O)CCN2C(=O)C3CCCCC3C2=O)cc1", "note": "(configuration not stated)", "Potency": "inconclusive: 16.4 µM [activator, partial curve, poor fit]"}
{"smiles": "O=C(CSc1ccc(-c2ccc(F)cc2)nn1)NCCc1ccccc1", "lipid storage change, negative = inhibition": "inconclusive: 5.44%"}
{"smiles": "CC1(C)Cc2c(C#N)c(OCC(=O)c3ccccc3)nc(-c3ccoc3)c2CO1", "Potency": "inconclusive: 9.2 µM [activator, single point]"}
{"smiles": "O=Nc1c(O)n(Cc2cccc(Cl)c2)c2ccccc12", "lipid storage change, negative = inhibition": "inconclusive: -51.5%"}
{"smiles": "COc1ccc(S(=O)(=O)N2CCCCC2)cc1NC(=O)C1CSC2(C)CCC(=O)N12", "note": "(configuration not stated)", "Potency": "inconclusive: 18.4 µM [falling, single point]"}
{"smiles": "O=C(COC(=O)c1ccc(F)cc1Cl)Nc1cccc(S(=O)(=O)N2CCOCC2)c1", "Potency": "inconclusive: 25.9 µM [falling, single point]"}
{"smiles": "Cc1ccc(-c2csc3ncnc(SCC(=O)c4ccc5c(c4)OCCO5)c23)cc1", "Potency": "active: 5.17 µM"}
{"smiles": "C/C(=N\\N1CCN(c2ccccc2)CC1)c1ccccc1O", "Potency": "inconclusive: 13 µM [activator, partial curve]"}
{"smiles": "CC1CCC(C(C)C)C(OC(=O)Cn2c(-c3ccc(Cl)cc3)[n+](C)c3ccccc32)C1", "note": "(configuration not stated)", "Potency": "inconclusive: 8.2 µM [cytotoxic, partial curve]"}
{"smiles": "Cc1ccc(C(C)C)c(OCCN)c1", "lipid storage change, negative = inhibition": "inconclusive: 18.4%"}
{"smiles": "O=C(c1noc2c1CCCC2)N1CCN(c2ccc(F)cc2)CC1", "lipid storage change, negative = inhibition": "inconclusive: 34.2%"}
{"smiles": "Cc1ccc(NC2CCCN(C(=O)CSc3ccccn3)C2)cc1C", "note": "(configuration not stated)", "lipid storage change, negative = inhibition": "inconclusive: 122%"}
{"smiles": "COc1ccc(CCNC(=O)COC(=O)C2CC2)cc1", "lipid storage change, negative = inhibition": "inconclusive: -3.87%"}
{"smiles": "COc1ccc(CC(=O)NCc2nc(-c3ccccc3)no2)cc1", "Potency": "inconclusive: 6.51 µM [cytotoxic, single point]"}
{"smiles": "O=C(Cc1cccc(C(F)(F)F)c1)OCC(=O)N1CCN(S(=O)(=O)c2ccc(Cl)cc2)CC1", "lipid storage change, negative = inhibition": "inconclusive"}
{"smiles": "COc1cccc(C(C(=O)NC2CCCC2)N(CC2CCCO2)C(=O)Cc2cccs2)c1", "note": "(configuration not stated)", "lipid storage change, negative = inhibition": "inconclusive: -28.6%"}
{"smiles": "CCOC(=O)CN1C(=O)COc2ccc(Cl)cc21", "lipid storage change, negative = inhibition": "inconclusive: 22.2% [cytotoxic]"}
{"smiles": "CCN(CC)C(=O)COc1ccc(N(C)S(=O)(=O)c2ccc(NC(C)=O)cc2)cc1", "lipid storage change, negative = inhibition": "inconclusive: 5.07%"}
{"smiles": "COc1cccc(OCC(=O)NN=C2c3ccccc3-c3ccccc32)c1", "lipid storage change, negative = inhibition": "inconclusive: -91.5%"}
{"smiles": "CC1=CCC2COC(c3ccc[n+](Cc4ccccc4)c3)C1C2", "note": "(configuration not stated)", "lipid storage change, negative = inhibition": "inconclusive: 10.9%"}
